Results from US10617668B2, “Pharmaceutical formulations” (Janssen Pharmaceutica NV, priority 2010, dated 2020).
The name of at least one read-out is uncertain.

Assay: In vivo pharmacokinetics of oral formulations in healthy human subjects
Conditions: fed versus fasted
Method: The three dose levels included 25 mg (representative formulation listed in Table 1.2), 200 mg (representative formulation listed in Table 1.3) and 400 mg of the drug compound.

SMILES: Cc1ccc(C2O[C@H](CO)[C@@H](O)[C@H](O)[C@H]2O)cc1Cc1ccc(-c2ccc(F)cc2)s1 (stereo partly shown) [compound of Formula (I-S)]
- effect of food on the rate of absorption (decrease in Cmax and delay in tmax): decreased
